Patent US20230280350A1 (NORDIC BIOSCIENCE A S, published 2023)
Results are given in words; binding and its absence hold for the method and conditions named. Some binding calls cover weakened binding; strength is not graded here.

The chains behind the UniProt entries cited, without tags or fusion partners. Residues count along the entry.
UniProt Q07092, residues 22-1604: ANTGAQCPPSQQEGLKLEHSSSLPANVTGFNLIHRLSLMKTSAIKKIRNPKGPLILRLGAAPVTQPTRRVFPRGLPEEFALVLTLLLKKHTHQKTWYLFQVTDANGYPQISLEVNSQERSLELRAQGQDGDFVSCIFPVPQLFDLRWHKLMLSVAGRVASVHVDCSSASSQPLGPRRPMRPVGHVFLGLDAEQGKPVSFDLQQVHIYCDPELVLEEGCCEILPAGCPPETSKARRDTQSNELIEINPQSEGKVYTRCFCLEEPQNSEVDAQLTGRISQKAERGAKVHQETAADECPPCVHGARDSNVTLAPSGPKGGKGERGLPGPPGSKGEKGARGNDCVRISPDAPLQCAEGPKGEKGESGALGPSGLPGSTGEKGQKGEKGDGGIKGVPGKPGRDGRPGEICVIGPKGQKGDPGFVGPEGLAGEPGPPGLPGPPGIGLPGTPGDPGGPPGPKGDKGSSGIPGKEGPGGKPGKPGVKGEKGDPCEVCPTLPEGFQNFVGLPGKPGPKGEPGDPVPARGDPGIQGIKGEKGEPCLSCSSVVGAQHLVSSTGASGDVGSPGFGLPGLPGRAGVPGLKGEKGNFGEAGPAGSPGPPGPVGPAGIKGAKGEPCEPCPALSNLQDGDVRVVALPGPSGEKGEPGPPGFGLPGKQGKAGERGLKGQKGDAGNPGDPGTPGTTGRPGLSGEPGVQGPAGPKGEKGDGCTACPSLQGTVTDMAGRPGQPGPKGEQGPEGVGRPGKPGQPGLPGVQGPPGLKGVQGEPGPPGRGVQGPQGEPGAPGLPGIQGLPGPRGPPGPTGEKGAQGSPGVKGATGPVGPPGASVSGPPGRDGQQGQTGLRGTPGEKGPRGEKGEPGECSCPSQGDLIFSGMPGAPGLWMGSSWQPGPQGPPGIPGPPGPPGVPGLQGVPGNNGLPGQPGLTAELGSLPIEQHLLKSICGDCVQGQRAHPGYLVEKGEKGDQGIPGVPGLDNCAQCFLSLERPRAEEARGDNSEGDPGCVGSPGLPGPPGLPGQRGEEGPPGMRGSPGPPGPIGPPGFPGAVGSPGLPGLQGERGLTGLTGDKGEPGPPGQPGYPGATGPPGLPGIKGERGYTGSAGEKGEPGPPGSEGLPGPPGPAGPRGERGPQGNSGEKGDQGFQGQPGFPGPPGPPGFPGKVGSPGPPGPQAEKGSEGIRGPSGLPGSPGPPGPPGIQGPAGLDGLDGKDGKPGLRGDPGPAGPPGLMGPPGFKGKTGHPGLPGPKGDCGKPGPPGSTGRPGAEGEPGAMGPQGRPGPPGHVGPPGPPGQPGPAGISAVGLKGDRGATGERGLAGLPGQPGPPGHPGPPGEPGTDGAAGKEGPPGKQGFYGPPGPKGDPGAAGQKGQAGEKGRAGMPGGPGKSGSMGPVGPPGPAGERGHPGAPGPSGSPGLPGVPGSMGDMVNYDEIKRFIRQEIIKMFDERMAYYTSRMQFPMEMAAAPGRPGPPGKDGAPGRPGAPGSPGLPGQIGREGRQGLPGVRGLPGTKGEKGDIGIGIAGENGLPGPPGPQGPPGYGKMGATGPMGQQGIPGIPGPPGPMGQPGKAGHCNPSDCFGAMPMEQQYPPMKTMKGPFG

Tests used:
[1] = biological target: type XVI collagen α1 chain (native material in human serum) (human) (UniProt Q07092); test: competitive ELISA on human serum
[2] = biological target: type XVI collagen α1 chain (native material in human serum) (human) (UniProt Q07092); test: competitive ELISA, peptide specificity

binding [1]: binds
binding [2]: binds
B1: monoclonal antibody of the PRO-C16 assay, raised against KLH-CGG-… (antibody, mouse IgG2b, kappa, V domains shown)
VH: EVQLQQSGAELVRSGASVKLSCTASGFNIKDYYIHWVKQRPEQGLEWIGWIDHDNGDTEYDPKFQGKATLTADTSSNTAYLQLSSLTSEDTAVYYCNAKGPRYGYEEDWFAYWGQGTLVTVST
VL: DVLMTQTPLSLPVSLGDQASISCRSSQSIVHNNGNTYLEWFLQKPGQSPKLLIYKVSNRFSGVPDRFSGSGSGTDFTLRISRVEADDLGVYYCFQGSHVPRTFGGGTKLEIKR
notes: also called PRO-C16 antibody; C16-C
